This experiment has as its target HA-tagged EBNA2 (wild type), transfected (Epstein-Barr virus (B95-8)) (UniProt P12978). Put plainly: affinity purification with mass spectrometry; DG75 cells transfected with C-terminal HA-tagged EBNA2 or HA vector; NP-40 lysis buffer (1% NP-40, 10 mM Tris-HCl pH 7.4, 3% glycerol, 150 mM NaCl, 1 mM EDTA); IP with HA-specific antibody on protein G beads; label-free LC-MS/MS.

Chains of the proteins cited; added tags and fusions are not shown.
UniProt P12978: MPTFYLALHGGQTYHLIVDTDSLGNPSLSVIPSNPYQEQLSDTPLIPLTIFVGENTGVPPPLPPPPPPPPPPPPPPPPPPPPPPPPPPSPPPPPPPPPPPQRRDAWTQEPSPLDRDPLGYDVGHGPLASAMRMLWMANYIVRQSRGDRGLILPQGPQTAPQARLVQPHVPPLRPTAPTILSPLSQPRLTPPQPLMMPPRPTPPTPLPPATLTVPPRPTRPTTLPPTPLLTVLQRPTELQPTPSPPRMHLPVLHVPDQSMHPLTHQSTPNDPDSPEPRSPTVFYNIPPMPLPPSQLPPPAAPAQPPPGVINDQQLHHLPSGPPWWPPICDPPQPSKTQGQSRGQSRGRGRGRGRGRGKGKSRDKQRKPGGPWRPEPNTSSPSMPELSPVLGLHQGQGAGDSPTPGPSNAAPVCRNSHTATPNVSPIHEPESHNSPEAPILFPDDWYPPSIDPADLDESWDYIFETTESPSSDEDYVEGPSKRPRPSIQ
UniProt Q06330: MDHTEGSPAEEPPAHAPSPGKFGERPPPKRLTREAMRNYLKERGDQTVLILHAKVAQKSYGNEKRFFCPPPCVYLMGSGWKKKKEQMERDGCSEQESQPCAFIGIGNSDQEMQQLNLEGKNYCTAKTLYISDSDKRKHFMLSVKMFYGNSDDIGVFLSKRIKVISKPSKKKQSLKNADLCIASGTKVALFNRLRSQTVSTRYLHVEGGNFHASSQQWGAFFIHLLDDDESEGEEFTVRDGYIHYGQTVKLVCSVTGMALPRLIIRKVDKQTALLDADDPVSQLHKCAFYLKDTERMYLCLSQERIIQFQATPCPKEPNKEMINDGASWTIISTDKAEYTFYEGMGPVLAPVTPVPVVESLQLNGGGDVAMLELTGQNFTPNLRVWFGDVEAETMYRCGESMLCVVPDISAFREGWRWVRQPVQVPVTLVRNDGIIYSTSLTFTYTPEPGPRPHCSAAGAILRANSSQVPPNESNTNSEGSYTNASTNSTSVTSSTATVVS

These are yes or no findings as the source states them, for the method shown. Binding seen in cells or lysates may run through a third protein. Here binding means that the protein was enriched with, or labelled near, the bait; the list need not be complete.

For “CBF1/RBPJ, endogenous (from UniProt Q06330 1-500)”, the binding entry is given as “binds”.

The record behind these values is paper PMC8647151, “PLK1‐dependent phosphorylation restrains EBNA2 activity and lymphomagenesis in EBV‐infected mice” (EMBO Reports, 2021).
